Some of these results come from one statement about several compounds together.
Tested on: HCT116 colon cancer cells
Assay: SCID mouse HCT116 colon cancer xenograft
Assay type: in vivo, SCID mice
Settings: NSC348884 1.5 mg/kg alone or with doxorubicin
Description: SCID mice were inoculated with 10×10^6 HCT116 colon cancer cells in their flanks to form measurable tumors in the range 60-100 mm^3. Mice were pair matched with 12 mice per arm. NSC348884 was administered (Monday, Wednesday, Friday), Doxorubicin (Monday), combination or vehicle by intra-peritoneal injection each for 4 weeks. Measurements of tumor growth were performed twice a week and tumor volume estimated according to the formula: [(width)^2×length]/2. Mice were weighed before the beginning of the experiment and twice a week thereafter to check for signs of toxicity. Control mice (upper panel, first bar) were treated with vehicle (DMSO), NSC348884 at 1.5 mg/kg NSC348884 (upper panel, second bar), very low dose doxorubicin at 20 ug/kg (upper panel, third bar), and the combination of NSC348884/doxorubicin (upper panel, fourth bar).

Cc1ccc2nc(CN(CCN(Cc3nc4ccc(C)cc4[nH]3)Cc3nc4ccc(C)cc4[nH]3)Cc3nc4ccc(C)cc4[nH]3)[nH]c2c1 [NSC348884, N,N,N′,N′-tetrakis[(5-methyl-2-benzimidazolyl)methyl]-1,2-ethanediamine]
mean tumor growth inhibition (TGI): 40-50%
